In article PMC6401139 one finds binding data, which are given here for three substances.

Protein sequences, listed by entry. Tags and fused reporters are not part of them. Lines headed by an entry give the natural chain unless they say otherwise; changes in a name come on top.
UniProt P21802: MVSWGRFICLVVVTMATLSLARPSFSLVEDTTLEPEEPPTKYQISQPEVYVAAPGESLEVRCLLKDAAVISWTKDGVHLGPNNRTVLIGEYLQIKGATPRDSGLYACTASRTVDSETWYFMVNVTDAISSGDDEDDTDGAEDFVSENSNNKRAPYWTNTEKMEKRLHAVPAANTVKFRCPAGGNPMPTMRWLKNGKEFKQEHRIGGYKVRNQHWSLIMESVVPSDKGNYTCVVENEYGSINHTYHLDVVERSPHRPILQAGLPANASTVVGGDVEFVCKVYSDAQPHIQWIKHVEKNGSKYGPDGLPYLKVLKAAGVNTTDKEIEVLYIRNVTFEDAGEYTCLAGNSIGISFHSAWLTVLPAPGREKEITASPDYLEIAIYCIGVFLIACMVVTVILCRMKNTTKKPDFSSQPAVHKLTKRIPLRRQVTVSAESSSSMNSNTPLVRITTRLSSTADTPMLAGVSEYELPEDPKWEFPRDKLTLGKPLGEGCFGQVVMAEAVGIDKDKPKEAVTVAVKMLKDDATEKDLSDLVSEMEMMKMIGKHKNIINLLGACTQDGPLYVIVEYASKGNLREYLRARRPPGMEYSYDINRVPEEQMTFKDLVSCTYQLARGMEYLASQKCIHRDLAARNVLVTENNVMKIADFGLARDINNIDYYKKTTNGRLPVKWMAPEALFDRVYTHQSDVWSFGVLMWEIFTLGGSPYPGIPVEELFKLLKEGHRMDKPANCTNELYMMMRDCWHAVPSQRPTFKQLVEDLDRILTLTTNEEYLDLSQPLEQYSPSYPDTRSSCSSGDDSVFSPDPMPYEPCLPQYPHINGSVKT
UniProt Q16665: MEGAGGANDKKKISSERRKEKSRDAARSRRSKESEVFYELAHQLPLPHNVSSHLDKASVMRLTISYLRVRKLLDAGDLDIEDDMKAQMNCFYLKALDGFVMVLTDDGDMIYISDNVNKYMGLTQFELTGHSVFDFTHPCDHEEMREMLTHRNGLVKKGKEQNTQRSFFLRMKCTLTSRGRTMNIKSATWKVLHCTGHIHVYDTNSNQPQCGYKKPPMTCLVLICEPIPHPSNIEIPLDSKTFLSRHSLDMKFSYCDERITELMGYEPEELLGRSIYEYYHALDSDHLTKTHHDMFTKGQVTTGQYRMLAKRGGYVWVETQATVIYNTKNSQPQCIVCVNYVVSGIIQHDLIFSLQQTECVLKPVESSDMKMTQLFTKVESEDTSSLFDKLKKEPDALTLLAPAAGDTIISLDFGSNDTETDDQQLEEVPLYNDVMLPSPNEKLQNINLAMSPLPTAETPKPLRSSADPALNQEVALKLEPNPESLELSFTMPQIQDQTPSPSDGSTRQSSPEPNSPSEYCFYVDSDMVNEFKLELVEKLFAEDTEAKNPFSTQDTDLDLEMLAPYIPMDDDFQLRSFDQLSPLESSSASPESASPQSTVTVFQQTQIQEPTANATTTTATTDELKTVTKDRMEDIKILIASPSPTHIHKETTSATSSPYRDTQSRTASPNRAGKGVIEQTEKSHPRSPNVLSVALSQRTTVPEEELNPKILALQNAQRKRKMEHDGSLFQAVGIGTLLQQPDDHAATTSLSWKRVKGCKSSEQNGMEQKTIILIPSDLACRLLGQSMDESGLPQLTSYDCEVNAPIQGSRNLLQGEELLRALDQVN
UniProt Q99814: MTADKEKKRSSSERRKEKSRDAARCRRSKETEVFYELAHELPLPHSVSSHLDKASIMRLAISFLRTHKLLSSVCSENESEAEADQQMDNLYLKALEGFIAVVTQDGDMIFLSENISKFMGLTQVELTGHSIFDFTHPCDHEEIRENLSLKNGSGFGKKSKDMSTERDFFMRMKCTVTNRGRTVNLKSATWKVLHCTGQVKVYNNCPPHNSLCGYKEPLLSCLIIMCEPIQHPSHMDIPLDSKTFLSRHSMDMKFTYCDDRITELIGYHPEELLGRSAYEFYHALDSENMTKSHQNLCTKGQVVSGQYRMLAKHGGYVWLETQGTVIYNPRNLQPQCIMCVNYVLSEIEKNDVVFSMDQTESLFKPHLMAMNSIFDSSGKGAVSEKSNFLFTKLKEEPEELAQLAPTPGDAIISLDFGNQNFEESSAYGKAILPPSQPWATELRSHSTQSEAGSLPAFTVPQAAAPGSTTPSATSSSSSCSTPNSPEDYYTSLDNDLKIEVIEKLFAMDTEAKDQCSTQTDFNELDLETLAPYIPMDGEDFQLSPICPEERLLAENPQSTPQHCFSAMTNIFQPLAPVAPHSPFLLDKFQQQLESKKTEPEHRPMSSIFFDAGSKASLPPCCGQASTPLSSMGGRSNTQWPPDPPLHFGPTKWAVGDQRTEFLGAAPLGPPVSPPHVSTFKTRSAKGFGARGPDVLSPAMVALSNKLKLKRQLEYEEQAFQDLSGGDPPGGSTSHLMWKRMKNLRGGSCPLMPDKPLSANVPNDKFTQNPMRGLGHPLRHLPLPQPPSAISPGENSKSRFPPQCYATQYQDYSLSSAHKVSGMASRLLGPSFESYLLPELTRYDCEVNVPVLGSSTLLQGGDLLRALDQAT

Results are given in words; binding and its absence hold for the method and conditions named. Binding seen in cells or lysates may run through a third protein. Binding calls can cover weak binding; strength is not graded here.

For assay [1], the target named is Full-length FGFR2-3XFLAG (UniProt P21802). Briefly: co-IP; HEK293T co-transfected with FGFR2-FLAG and HA-HIF-1α (or HIF-2α); normoxia or hypoxia (1% O2) 8 h; lysates precipitated with IgG, anti-FLAG or anti-FGFR2; immunoblot.
The target is the same in assay [2]. Briefly: co-IP; HEK293T co-transfected with FGFR2-FLAG and Gal4-CAD; hypoxia 8 h; precipitated with anti-FLAG affinity gel; blot with anti-Gal4.
For assay [3], the target named is Gal4-CAD (aa. 776–826 of HIF-1α) (UniProt Q16665). Briefly: co-IP; HEK293T overexpressing Gal4-CAD, HA-p300 and FGFR2-FLAG; hypoxia 8 h; precipitated with anti-Gal4; immunoblot. For orientation: A western blot detects proteins with antibodies after separation by electrophoresis.
For assay [4], the target named is green fluorescence protein (GFP)-tagged HIF-1α (UniProt Q16665). Briefly: co-IP; HEK293T co-transfected with HA-p300, GFP-HIF-1α and FGFR2-FLAG; hypoxia 8 h; precipitated with anti-HA affinity gel; immunoblot.

On to “HIF-2α (ectopically expressed) (from UniProt Q99814 1-870)”, for which the binding entry in assay [1] is “binds”. For “Gal4-CAD (aa. 776–826 of HIF-1α) (from UniProt Q16665 776-826) (domain or fragment)”, the binding result in assay [2] is “binds”.

“Full-length FGFR2-3XFLAG (from UniProt P21802-3) (receptor)”: the binding entry in assay [3] and in assay [4] was “binds” throughout.
